According to PubChem BioAssay AID504444 (National Center for Advancing Translational Sciences (NCATS), 2011):
Screen size: about 360,000 compounds; about 7,500 (2.1%) were called active. The shares of active, inactive and inconclusive entries below differ from those in the screen. Calls come from the whole dose curve; as a rule, active = well fitted inhibition curve with a large enough effect; inconclusive = small, poorly fitted or top-dose-only effect, or effect the other way; inactive = flat fitted curve, though single readings scatter. A potency beside an inconclusive call is a rough fit, not a confirmed value.

Test: Nrf2 qHTS screen for inhibitors; note: nearly all actives have a fitted effect of over 60% in size
Conditions: A549 ARE-Fluc reporter, luciferase luminescence, 18-24 h; series mostly up to 46 µM
How it was run: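 Two sequential reads on A549 ARE_Fluc cells exposed to compound for 18-24 h: a CellTiter-Fluor fluorescence read for viability, then a luciferase luminescence read for Nrf2/ARE activity.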
Potency is the fitted concentration of half-maximal effect.

Q: For CC(C)CN(C(=O)COC(=O)c1cccnc1Cl)c1c(N)n(Cc2ccccc2)c(=O)[nH]c1=O, which Potency is on record?
A: Its Potency is inconclusive: 1.64 µM [falling, single point].

Q: For O=C1Cc2c([nH]c3ccc([N+](=O)[O-])cc23)-c2ccccc2N1, which Potency is on record?
A: Its Potency is active: 2.31 µM.

Q: With CN(CC(=O)Nc1cccc(F)c1)C(=O)c1cccc(S(=O)(=O)N2CCN(c3ccccc3)CC2)c1 as the molecule, how does the Potency read?
A: Its Potency is inconclusive: 11.6 µM [falling, partial curve, poor fit].

Q: With COc1ccc(Nc2cc(Nc3ccccc3)ncn2)cc1 as the molecule, how does the Potency read?
A: Its Potency is inconclusive: 0.92 µM [activator, full curve, poor fit].

Q: Which Potency does the source give for CN(c1ccc(O)cc1)S(=O)(=O)c1ccc2ccccc2c1 here?
A: Its Potency is inconclusive: 7.31 µM [activator, partial curve].

Q: For Cc1ccc(C=Nc2ccc(N(C)C)cc2)o1, which Potency is on record?
A: The Potency was inconclusive: 5.17 µM [activator, full curve].

Q: For O=C(N/C(=C\c1cccc([N+](=O)[O-])c1)C(=O)N1CCCCC1)c1cccs1, which Potency is on record?
A: The Potency was inconclusive: 13 µM [falling, partial curve, poor fit].

Q: For Cc1cccc(NC(=S)N/N=C/c2cccn2Cc2ccc(F)cc2)c1, which Potency is on record?
A: Its Potency is inconclusive: 16.4 µM [falling, single point].

Q: Which Potency does the source give for Cc1cccc(C)c1OCC(=O)N/N=C/c1cc2c(cc1[N+](=O)[O-])OCO2 here?
A: The Potency was inconclusive: 29.1 µM [falling, single point].

Q: With CC1=NN(c2ccc(S(=O)(=O)O)cc2Cl)C(=O)C1 as the molecule, how does the Potency read?
A: Its Potency is inconclusive: 9.2 µM [activator, partial curve].

Q: For COc1cc(OC)cc(-c2c(C#Cc3ccsc3)c3cc(-c4ccc(SC)cc4)ccc3n2C)c1, which Potency is on record?
A: The Potency was inconclusive: 29.1 µM [activator, single point].

Q: With Cc1ccc(C(=O)c2cc([N+](=O)[O-])ccc2N2CCOCC2)c(C)c1 as the molecule, how does the Potency read?
A: The Potency was inconclusive: 23.1 µM [activator, single point].

Q: Which Potency does the source give for COc1ccc(/C=C/C(=O)Nc2cccc(F)c2)cc1 here?
A: The Potency was inconclusive: 0.206 µM [activator, full curve, poor fit].

Q: For CCOC(=O)N/N=C1\CCc2ccccc21, which Potency is on record?
A: The Potency was inconclusive: 25.9 µM [activator, single point].

Q: With CC(=O)c1c(C)[nH]c(C(=O)OCc2csc(CC(=O)Nc3ccccc3C)n2)c1C as the molecule, how does the Potency read?
A: Its Potency is inconclusive: 25.9 µM [falling, partial curve, poor fit].

Q: For CCCOc1ccc(C2NC(=O)NC2=O)cc1 (stereo not given), which Potency is on record?
A: Its Potency is inconclusive: 25.9 µM [activator, partial curve, poor fit].

Q: With O=C(NC(=O)c1cc(OCC(F)(F)F)ccc1OCC(F)(F)F)Nc1ccccc1 as the molecule, how does the Potency read?
A: The Potency was inconclusive: 5.8 µM [falling, partial curve].

Q: With Cc1ccc(-c2nn3c(C)nnc3c3ccccc23)cc1S(=O)(=O)NC(C)(C)CO as the molecule, how does the Potency read?
A: The Potency was active: 11.6 µM.

Q: Which Potency does the source give for O=C(COc1ccccc1Br)Nc1ccc2c(c1)OCCCO2 here?
A: The Potency was inconclusive: 8.2 µM [activator, partial curve].

Q: With CO/N=C/c1ccc(Sc2ccccc2N)c([N+](=O)[O-])c1 as the molecule, how does the Potency read?
A: Its Potency is inconclusive: 13 µM [falling, partial curve].

Q: For O=C(NC(=Nc1nc2ccccc2o1)NC(=O)c1ccccc1)c1ccccc1, which Potency is on record?
A: Its Potency is inconclusive: 2.91 µM [activator, full curve].

Q: Which Potency does the source give for Cc1ccccc1NC(=O)C1CCN(S(=O)(=O)c2cccc3nonc23)CC1 here?
A: Its Potency is inconclusive: 16.4 µM [activator, single point].

Q: Which Potency does the source give for COc1ccccc1CN1CC(C(=O)NCCCc2ccc(F)cc2)CCC1=O (stereo not given) here?
A: Its Potency is inconclusive: 13 µM [falling, partial curve, poor fit].

Q: For CCOC(=O)CCCC(=O)Nc1ncnc2c1C(c1ccccc1)c1c(ccc3ccccc13)O2 (stereo not given), which Potency is on record?
A: Its Potency is inconclusive: 29.1 µM [falling, single point].

Q: With COc1ccccc1N1CCN(C(=O)c2ccco2)CC1 as the molecule, how does the Potency read?
A: The Potency was inconclusive: 4.11 µM [activator, full curve, poor fit].

Q: For CCOc1ccc(N(CC(=O)Nc2cc(C)cc(C)c2)S(C)(=O)=O)cc1, which Potency is on record?
A: Its Potency is inconclusive: 29.1 µM [falling, single point].

Q: With Cc1oc(-c2ccccc2)nc1Cn1c(=O)cc(-c2ccccc2)c2c(C)nn(C)c21 as the molecule, how does the Potency read?
A: The Potency was inconclusive: 0.146 µM [activator, full curve, poor fit].

Q: With COc1ccc(C2=NOC(COc3ccc([N+](=O)[O-])cc3)C2)cc1 (stereo not given) as the molecule, how does the Potency read?
A: The Potency was inconclusive: 1.3 µM [falling, partial curve, poor fit].

Q: Which Potency does the source give for Cc1ccc(NC(=O)c2ccc3c(c2)[nH]c(=O)n3C(C)C)cc1 here?
A: The Potency was inconclusive: 29.1 µM [falling, single point].

Q: With CS(=O)(=O)c1ccccc1-c1nnc(NC(=O)c2ccc(S(=O)(=O)N3CCCC3)cc2)o1 as the molecule, how does the Potency read?
A: The Potency was “inactive”.

Q: Which Potency does the source give for Cc1ccc(C(C#N)c2ccc3c(C(F)(F)F)cc(C(F)(F)F)nc3n2)cc1 (stereo not given) here?
A: The Potency was inconclusive: 29.1 µM [falling, single point].

Q: Which Potency does the source give for CSCCC(=O)N1CCC(n2nccc2NC(=O)c2ccc3c(c2)OCO3)CC1 here?
A: Its Potency is inconclusive: 5.8 µM [activator, partial curve].

Q: Which Potency does the source give for CCCn1c(CNc2ccccc2O)nc2ccccc21 here?
A: Its Potency is “inactive”.

Q: With Cn1c(=O)c2c(-c3ccccc3)n3c(c2n(C)c1=O)C(c1cccc([N+](=O)[O-])c1)Nc1ccccc1-3 (stereo not given) as the molecule, how does the Potency read?
A: Its Potency is “inactive”.

Q: With O=C1NC(=Nc2ccccc2)/C(=C/c2ccco2)S1 as the molecule, how does the Potency read?
A: The Potency was inconclusive: 11.6 µM [falling, partial curve, poor fit].

Q: For CC1CCCN(C(=O)Cc2cn(Cc3cccc(Cl)c3)c3ccccc23)C1 (stereo not given), which Potency is on record?
A: The Potency was inconclusive: 32.6 µM [falling, single point].

Q: Which Potency does the source give for O=C(O)/C=C\C(=O)Nc1ccc(OCc2ccccc2)cc1 here?
A: Its Potency is “inactive”.

Q: Which Potency does the source give for CCCCc1ccc(NC(=O)CN2NS(=O)(=O)c3ccccc3C2=O)cc1 here?
A: The Potency was inconclusive: 2.59 µM [falling, full curve, poor fit].

Q: For COc1ccc(C(=O)N2CCN(CCc3ccccn3)CC2)cc1, which Potency is on record?
A: The Potency was inconclusive: 3.66 µM [falling, full curve, poor fit].

Q: For COC(=O)[C@@H](NC(=O)NC1CCCCC1C)C(C)C (stereo not given in full), which Potency is on record?
A: The Potency was inconclusive: 29.1 µM [falling, single point].
